Results reported in PubChem BioAssay AID1487 (National Center for Advancing Translational Sciences (NCATS), 2009).
Some of the results follow. Shown are side measurements of this screen, not its main read-out; they come without a call. Most of these compounds were active or inconclusive in the main read-out, so they are no random draw. Words in brackets tell the shape of the fitted curve; partial curves, single points and poor fits give uncertain potencies.

Assay: qHTS Assay for Modulators of Lamin A Splicing
Details: HeLa LMNA splicing GFP/RFP minigene ratio, 48 h
Procedure, shortened: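 Read-out is the ratio of GFP to DsRed2 object intensity, acquired by 488 nm laser-scanning cytometry on HeLa lamin A-EGFP minigene reporter cells. Compound incubation 48 hrs at 37 °C in Opti-MEM with 2% FBS; DMSO 0.5% final.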

[1] = measured here: GFP splicing reporter channel
[2] = measured here: RFP viability control channel

Structure (SMILES)	AC50 [1]	AC50 [2]
Cc1cc(=O)[nH]c2nnc(SCc3cccc(F)c3)n12	0.1 µM [falling, single point]	–
CCOC(=O)NNc1nncc2ccccc12	–	7.94 µM [rising, single point]
O=C(NCCSCc1ccco1)Nc1cccc(Cl)c1	–	17.8 µM [rising, single point]
CC1CCCN(S(=O)(=O)c2ccc(S(=O)(=O)NC(C)c3cccs3)cc2)C1 (stereo not given)	–	17.8 µM [rising, single point]
CCN(CC(=O)Nc1cccc(OC)c1)c1ncnc2sc(C)c(C)c12	5.01 µM [rising, full curve, poor fit]	3.98 µM [rising, full curve]
O=C(O)c1ccc(Cn2cnc3scc(-c4ccccc4)c3c2=O)cc1	14.1 µM [rising, partial curve, poor fit]	–
CCCn1cc(SCC(=O)Nc2nnc(C)s2)c2ccccc21	2.82 µM [falling, partial curve]	3.98 µM [falling, partial curve, poor fit]
Cc1nc(NC(=O)C2CC2)sc1C(=O)NC1CCCCC1	–	31.6 µM [falling, single point]
COc1ccc(C(=O)CSc2nc3cccnc3n2C)cc1	–	25.1 µM [rising, single point]
CSc1nc2ccc(S(=O)(=O)NC3CCCCC3)cc2s1	–	11.2 µM [rising, partial curve, poor fit]
O=[N+]([O-])c1cccc(S(=O)(=O)c2ccc(N3CCCCC3)c([N+](=O)[O-])c2)c1	35.5 µM [rising, single point]	35.5 µM [rising, single point]
CCC1(C)COC(C)(CC(=O)NNC(=O)Nc2ccccc2)OC1 (stereo not given)	–	0.794 µM [rising, full curve, poor fit]
Cc1ccc(C)c(N2CCN(C(=O)Cn3cccc3)CC2)c1	35.5 µM [rising, single point]	31.6 µM [rising, single point]
CCOC(=O)C1CN(S(=O)(=O)c2ccc(C)cc2)CCN1S(=O)(=O)c1ccc(C)cc1 (stereo not given)	–	35.5 µM [rising, single point]
CCC1S/C(=N/N=C/c2cccs2)NC1=O (stereo not given)	0.316 µM [rising, partial curve]	0.316 µM [rising, full curve, poor fit]
COc1ccc(N2CCN(C(=O)c3ccc(NS(=O)(=O)c4ccc(F)c(F)c4)cc3)CC2)cc1	14.1 µM [rising, single point]	28.2 µM [rising, single point]
Cc1cccc(OCCCC(=O)Nc2ccc3c(c2)OCO3)c1	35.5 µM [rising, single point]	–
Cn1c2c(c(=O)[nH]c1=O)C(c1ccc(O)cc1)C1=C(N2)c2ccccc2C1=O (stereo not given)	35.5 µM [falling, single point]	3.55 µM [rising, single point]
O=S(=O)(c1ccccc1)N(CC(O)Cn1c2ccccc2c2ccccc21)c1ccccc1 (stereo not given)	22.4 µM [falling, single point]	14.1 µM [falling, partial curve]

Structure (SMILES)	AC50 [1]	AC50 [2]
CSc1sc(C(=O)OC(C)C)c2c1C(=O)CC(C)(C)C2	–	1.26 µM [falling, partial curve, poor fit]
CCC(=O)N(NC1=NS(=O)(=O)c2ccccc21)S(=O)(=O)c1ccc(C)cc1	–	0.0251 µM [falling, partial curve, poor fit]
CC1CC(C)CN(S(=O)(=O)c2ccccc2[N+](=O)[O-])C1 (stereo not given)	–	11.2 µM [rising, partial curve]
Cc1ccccc1-c1noc(N)c1C#N	35.5 µM [falling, single point]	–
CC(O)CNc1nc2ccccc2n1CC(=O)NC12CC3CC(CC(C3)C1)C2 (stereo not given)	35.5 µM [falling, partial curve, poor fit]	–
Cn1c(=O)c2c(ncn2C[C@@H](O)CO)n(C)c1=O	0.251 µM [falling, partial curve, poor fit]	0.00708 µM [falling, full curve, poor fit]
Cc1cccc(-c2cc3nc4c(c(NCc5ccco5)n3n2)CCCC4)c1	6.31 µM [falling, partial curve]	5.62 µM [falling, partial curve]
CCOc1ccc(-n2c(SCc3ccc([N+](=O)[O-])cc3)nnc2-c2ccc(OC)cc2)cc1	25.1 µM [rising, single point]	35.5 µM [rising, single point]
CCCc1cc(=O)oc2c(C)c3occ(C)c3cc12	12.6 µM [rising, single point]	–
O=c1c2ccccc2nc2n1-c1ccccc1CCC2	–	1.41 µM [falling, partial curve]
Cc1ccc(Cl)cc1N1CCN(C(=O)CN(C2CCCCC2)S(C)(=O)=O)CC1	–	15.8 µM [rising, partial curve]
COc1ccc(C2=CC(c3ccc(C)cc3)n3nnnc3N2)cc1 (stereo not given)	–	31.6 µM [rising, single point]
CCOC(=O)c1[nH]c(C)c(C(=O)Nc2ccccc2C)c1C	–	0.501 µM [rising, full curve, poor fit]
O=C1CCC(=O)N1CCCCCc1nc(-c2ccccc2)no1	–	11.2 µM [rising, partial curve, poor fit]
Cc1cc(C)c2c(c1)[C@@H]1C=CC[C@@H]1[C@H](c1ccc(S(=O)(=O)N3CCOCC3)cc1)N2	2.51 µM [rising, full curve]	–
CCOC(=O)N1CCN(c2ncnc3c2[nH]c2ccc(OC)cc23)CC1	–	5.01 µM [rising, partial curve]
Cc1ccccc1Oc1ccc(NC(=O)C2CC=CCC2C(=O)O)cc1 (stereo not given)	–	22.4 µM [rising, single point]
COc1ccc(C)cc1NC(=O)CN1CCN(c2ccc(F)cc2)CC1	11.2 µM [rising, partial curve]	12.6 µM [rising, partial curve]
Cc1ccc(N(CC(=O)NCCSCc2ccco2)S(=O)(=O)c2ccc(F)cc2)cc1	35.5 µM [falling, single point]	20 µM [falling, partial curve]

3 of these compounds, set out differently:
Structure (SMILES) | AC50 [1] | AC50 [2]
CC1CC(C)CN(S(=O)(=O)c2ccccc2[N+](=O)[O-])C1 (stereo not given) | – | 11.2 µM [rising, partial curve]
Cc1ccccc1-c1noc(N)c1C#N | 35.5 µM [falling, single point] | –
CC(O)CNc1nc2ccccc2n1CC(=O)NC12CC3CC(CC(C3)C1)C2 (stereo not given) | 35.5 µM [falling, partial curve, poor fit] | –

Remaining list, next part:

Structure (SMILES)	AC50 [1]	AC50 [2]
CC(C)Cn1c(SCc2cccc(F)c2)nc2ccsc2c1=O	–	31.6 µM [rising, single point]
CC(=O)c1cc2c(cc1N/C(=N/S(=O)(=O)c1ccc(C)cc1)c1ccc(Cl)cc1)OCO2	1.58 µM [rising, partial curve, poor fit]	2 µM [rising, partial curve, poor fit]
COc1ccc(Cc2nc3ccc(C(=O)NCCc4ccc(Cl)cc4)cc3o2)cc1	5.62 µM [falling, partial curve, poor fit]	–
O=C(Nc1ccc(Br)c(Cl)c1)C1CC1	–	11.2 µM [rising, partial curve, poor fit]
O=C(NCCc1ccccc1)c1ccc2nc(-c3ccco3)c(-c3ccco3)nc2c1	–	15.8 µM [rising, single point]
N/C(=N/OC(=O)c1ccccc1Cl)c1nonc1N	1.12 µM [rising, full curve]	–
O=C(CSc1nnc(-c2ccccc2)n1Cc1ccccc1)NNC(=O)c1ccccc1O	35.5 µM [rising, single point]	35.5 µM [rising, single point]
Cc1ccccc1NC1=C(Cl)C(=O)OC1NC(=O)c1ccccc1 (stereo not given)	–	25.1 µM [rising, single point]
COc1cc2c(cc1NC(=O)CSc1nccn1C)oc1ccccc12	–	14.1 µM [rising, partial curve, poor fit]
COCCNC(=O)C(OC(=O)c1cccs1)c1ccc(F)cc1 (stereo not given)	1.12 µM [falling, full curve, poor fit]	0.126 µM [falling, full curve]
COc1ccccc1-c1cc(C(F)(F)F)nc(S(=O)(=O)CCCC(=O)O)n1	35.5 µM [falling, single point]	35.5 µM [falling, single point]
O=C1CC(N2CCN(c3nc4ccccc4s3)CC2)C(=O)N1Cc1cccs1 (stereo not given)	–	22.4 µM [rising, single point]
COc1cccc(NS(=O)(=O)c2cc(-c3cnc(C4CC4)o3)ccc2C)c1	–	1.12 µM [rising, full curve]
O=C(COc1ccc(Cl)cc1)Nc1nnc(-c2ccc3c(c2)CCCC3)o1	–	2.51 µM [rising, partial curve]
CCCCC1CC(C)(C(=O)CSc2nc3ccccc3s2)OC1=O (stereo not given)	–	15.8 µM [rising, single point]
CCCCCc1c(C)nc(Nc2ccccc2)[nH]c1=O	–	14.1 µM [rising, single point]
Cc1ccc(O)c(-c2cc(C(=O)Nc3ccc(S(=O)(=O)N4CC(C)OC(C)C4)cc3)[nH]n2)c1 (stereo not given)	–	14.1 µM [rising, single point]
N#Cc1cc2c(nc1SCC(=O)NCc1ccc3c(c1)OCO3)CCCCC2	12.6 µM [rising, single point]	20 µM [rising, single point]
COc1ccc(N2C(=O)CCSC23C(=O)N(Cc2ccc(F)cc2)c2ccccc23)cc1Cl (stereo not given)	–	3.55 µM [rising, partial curve]
